The subject of the experiment is B6C3F1 mice, B16 melanoma ip, median survival T/C. The experiment can be described thus: NCI In Vivo Anticancer Drug Screen. Data for tumor model B16 Melanoma (intraperitoneal) in B6C3F1 mice. The settings on record: T/C endpoint: median survival time, schedule: Q01DX009 (ip), higher T/C = longer survival. The protocol: The antitumor activity of compounds was measured in mice bearing transplantable tumors. Survival or tumor size were measured and the results are expressed as the measurement made in the treated group (T) divided by the measurement made in the vehicle treated control group (C). The tumor model used in this assay is B16 Melanoma (intraperitoneal) in B6C3F1 mice

The list is a part of this screen's results and no random one: its compounds were picked by chemical class. Not every dose and run of a compound is shown. T/C: endpoint of the treated group in % of that of the vehicle group. Where survival is the endpoint, the PubChem record calls one and a half times the control and up active, and a quarter to a half above the control has no call in these data; cut-offs in other NCI protocols can differ. Schedule codes are those of the source, taken here to give the interval after Q, in days (D) or hours (H), and the number of doses after X. Some entries show no survivor count and are marked so; the dose need not have been tolerated. Additions like (4×) say how often a value occurs here. Some entries hold several experiments; the values are given in rising order.

`C[C@H](O)[C@H]1/C=C/C=C\C(=O)O[C@@H]2C[C@H]3O[C@@H]4[C@@H]5O[C@]5(C)CCC4(COC(=O)[C@H]4O[C@]4(C)[C@@H](O)CO1)[C@]2(C)[C@]31CO1` (some centres undefined): the T/C by setting is: (dose: 0.93 mg/kg/injection, vehicle: saline + Tween-80 + alcohol) 154 % of control [survivor count not shown]; (dose: 1.25 mg/kg/injection, vehicle: saline + Tween-80 + alcohol) 165 % of control [survivor count not shown]; (dose: 2.5 mg/kg/injection, vehicle: saline + Tween-80 + alcohol) 188 % of control [survivor count not shown].
`CC(O)C1/C=C/C=C/C(=O)OC2CC3OC4C5OC5(C)C(O)CC4(COC(=O)C(O)C(C)CCO1)C2(C)C31CO1` (centres undefined): the T/C is, setting by setting: (dose: 2.5 mg/kg/injection, vehicle: saline + alcohol) 138 % of control [survivor count not shown]; (dose: 5.0 mg/kg/injection, vehicle: saline + alcohol) 164 % of control [survivor count not shown]; (dose: 10.0 mg/kg/injection, vehicle: saline + alcohol) 158 % of control [survivor count not shown].
`CC1=CC2OC3CC4OC(=O)/C=C/C=C/C(C(C)O)OCC(O)C(C)CC(=O)OCC2(CC1O)C4(C)C31CO1` (centres undefined): the T/C by setting is: (dose: 156.0 micrograms/kg/injection, vehicle: Klucel (hydroxypropylcellulose) (HPC)) 188 % of control [survivor count not shown]; (dose: 310.0 micrograms/kg/injection, vehicle: Klucel (hydroxypropylcellulose) (HPC)) 193 % of control [survivor count not shown]; (dose: 620.0 micrograms/kg/injection, vehicle: Klucel (hydroxypropylcellulose) (HPC)) 188 % of control [survivor count not shown]; (dose: 1250.0 micrograms/kg/injection, vehicle: Klucel (hydroxypropylcellulose) (HPC)) 210 % of control [survivor count not shown].
For `C=C(C)C(=O)OC[C@]12CCC(C)=C[C@H]1O[C@@H]1[C@H](O)[C@@H](O)[C@@]2(C)[C@@]12CO2`, the T/C runs as follows: (dose: 0.13 mg/kg/injection, vehicle: saline + alcohol) 134 % of control [survivor count not shown]; (dose: 0.25 mg/kg/injection, vehicle: saline + alcohol) 132 % of control [survivor count not shown]; (dose: 0.5 mg/kg/injection, vehicle: saline + alcohol) 149 % of control [survivor count not shown]; (dose: 1.0 mg/kg/injection, vehicle: saline + alcohol) 138 % of control [survivor count not shown]; (dose: 2.0 mg/kg/injection, vehicle: saline + alcohol) 144 % of control [survivor count not shown].
Turning to `C=C(C)C(=O)OCC12CC(=O)C(C)=CC1OC1C(=O)C(OC(=O)C(=C)C)C2(C)C12CO2` (centres undefined), the T/C is 142 % of control [survivor count not shown] (dose: 0.25 mg/kg/injection, vehicle: water); 133 % of control [survivor count not shown] (dose: 0.5 mg/kg/injection, vehicle: water); 167 % of control [survivor count not shown] (dose: 1.0 mg/kg/injection, vehicle: water).
`C=C(C)C(=O)OCC12CCC(C)=CC1OC1C(=O)C(OC(=O)C(=C)C)C2(C)C12CO2` (centres undefined): the T/C was 114 % of control [survivor count not shown] (dose: 0.25 mg/kg/injection, vehicle: distilled water + Tween-80, evaluated on day 45); 137 % of control [survivor count not shown] (dose: 0.25 mg/kg/injection, vehicle: distilled water + Tween-80, evaluated on day 60); 109 [survivor count not shown] and 138 % of control [survivor count not shown] (dose: 0.5 mg/kg/injection, vehicle: distilled water + Tween-80, evaluated on day 45); 129 % of control [survivor count not shown] (2×) (dose: 0.5 mg/kg/injection, vehicle: distilled water + Tween-80, evaluated on day 60); 138 [survivor count not shown] and 147 % of control [survivor count not shown] (dose: 1.0 mg/kg/injection, vehicle: distilled water + Tween-80, evaluated on day 45); 138 [survivor count not shown] and 154 % of control [survivor count not shown] (dose: 1.0 mg/kg/injection, vehicle: distilled water + Tween-80, evaluated on day 60). Also, the T/C (dose: 2.0 mg/kg/injection, vehicle: distilled water + Tween-80, evaluated on day 45) is 149 % of control [survivor count not shown]; the T/C (dose: 2.0 mg/kg/injection, vehicle: distilled water + Tween-80, evaluated on day 60) was 135 % of control [survivor count not shown]; the T/C (dose: 4.0 mg/kg/injection, vehicle: distilled water + Tween-80) was 142 % of control [survivor count not shown].
Take `CC(=O)OCC12CCC(C)=CC1OC1C(O)C(OC(C)=O)C2(C)C12CO2` (centres undefined): the T/C (dose: 0.13 mg/kg/injection, vehicle: saline) is 106 [survivor count not shown] and 118 % of control [survivor count not shown]; the T/C (dose: 0.13 mg/kg/injection, vehicle: water) is 114 [survivor count not shown] and 131 % of control [survivor count not shown]; the T/C (dose: 0.16 mg/kg/injection, vehicle: saline) was 144 % of control [survivor count not shown]; the T/C (dose: 0.25 mg/kg/injection, vehicle: saline) was 113 [survivor count not shown] and 128 % of control [survivor count not shown]; the T/C (dose: 0.25 mg/kg/injection, vehicle: water, evaluated on day 45) was 136 % of control [survivor count not shown]; the T/C (dose: 0.25 mg/kg/injection, vehicle: water, evaluated on day 60) is 120 [survivor count not shown], 126 [survivor count not shown], 133 [survivor count not shown], 135 % of control [survivor count not shown]. Also, the T/C (dose: 0.31 mg/kg/injection, vehicle: saline) was 142 % of control [survivor count not shown]; the T/C (dose: 0.5 mg/kg/injection, vehicle: saline) is 126 [survivor count not shown] and 130 % of control [survivor count not shown]; the T/C (dose: 0.5 mg/kg/injection, vehicle: water, evaluated on day 45) was 132 [survivor count not shown] and 151 % of control [survivor count not shown]; the T/C (dose: 0.5 mg/kg/injection, vehicle: water, evaluated on day 60) is 125 [survivor count not shown], 133 [survivor count not shown], 136 % of control [survivor count not shown]; the T/C (dose: 1.0 mg/kg/injection, vehicle: saline) was 123 [survivor count not shown] and 124 % of control [survivor count not shown]; the T/C (dose: 1.0 mg/kg/injection, vehicle: water, evaluated on day 45) was 138 % of control [survivor count not shown]. In addition, the T/C was 119 [survivor count not shown], 122 [survivor count not shown], 136 [survivor count not shown], 138 % of control [survivor count not shown] (dose: 1.0 mg/kg/injection, vehicle: water, evaluated on day 60); 127 % of control [survivor count not shown] (dose: 1.25 mg/kg/injection, vehicle: saline); 109 [survivor count not shown] and 127 % of control [survivor count not shown] (dose: 2.0 mg/kg/injection, vehicle: saline); 116 [survivor count not shown] and 136 % of control [survivor count not shown] (dose: 2.0 mg/kg/injection, vehicle: water, evaluated on day 45); 108 [survivor count not shown], 122 [survivor count not shown], 130 [survivor count not shown], 136 % of control [survivor count not shown] (dose: 2.0 mg/kg/injection, vehicle: water, evaluated on day 60).

(Values after PubChem BioAssay AID200 (DTP/NCI, 2004).)
